In PubChem BioAssay AID624297 (National Center for Advancing Translational Sciences (NCATS), 2012):
About 6,200 (1.8%) of roughly 340,000 compounds were called active. This list was built around the results that the source calls inconclusive (neither active nor inactive); the mix of calls is not that of the screen. Calls come from the whole dose curve; as a rule, active = well fitted activation curve with a large enough effect; inconclusive = small, poorly fitted or top-dose-only effect; inactive = no such curve, though single readings can be large or run the other way. A potency beside an inconclusive call is a rough fit, not a confirmed value.

Experiment: A quantitative high throughput screen for small molecules that induce DNA re-replication in SW480 colon adenocarcinoma cells. For re-replication activation: % of control where 0% means no effect. Note: nearly all actives have a fitted effect of over 55% in size.
Details: Hoechst DNA content imaging, 48 h; re-replication activation: at 46.1 µM (top of the series) unless noted
Procedure, shortened: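 Image-based DNA-content assay: after two days of treatment, nuclei were labelled with the DNA dye Hoechst and imaged, and hits were compounds raising the count of nuclei showing high fluorescence intensity.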
Potency is the fitted concentration of half-maximal effect.

Row | Compound | Potency | re-replication activation
1 | CC(C)CN(CC(C)C)CC(O)COc1ccccc1Br (centres undefined) | inconclusive: 29.1 µM [activator, partial curve, poor fit] | –
2 | O=C(c1ccco1)N1CCN(C(=S)Nc2cccc([N+](=O)[O-])c2)CC1 | inconclusive: 29.1 µM [activator, single point] | –
3 | O=C(Nc1cccc(-c2nc3ccccc3[nH]2)c1)c1cccc(NC(=O)c2ccco2)c1 | active: 14.6 µM | –
4 | Cc1ccc(S(=O)(=O)NCC(=O)NCC(=O)N2CCN(c3ncccn3)CC2)cc1C | inconclusive: 18.4 µM [activator, single point] | –
5 | CCOc1ccc(N(Cc2ccc(C(=O)O)cc2)S(=O)(=O)c2ccc(C)cc2)cc1 | inconclusive: 25.9 µM [activator, single point] | –
6 | COc1ccc(OC)c(-n2c(SCC(=O)Nc3cc(C)on3)nnc2-c2c[nH]c3ccccc23)c1 | inconclusive: 25.9 µM [activator, single point] | –
7 | CCOC(=O)C1=C(C)NC(C)=C(C(=O)OCC)C1c1ccc(OC)cc1 | – | inactive: 2.45%
8 | O=S(=O)(c1cccc2ccccc12)N1CCC2CC1c1cc(Cl)ccc12 (centres undefined) | inconclusive: 3.26 µM [activator, single point] | –
9 | O=C(NNC(=O)C1CCC1)c1ccc(Cl)cc1 | inconclusive: 4.61 µM [activator, full curve, poor fit] | –
10 | COC(=O)c1ccc(NC(=O)CCOc2ccccc2)cc1 | inconclusive: 0.231 µM [activator, single point] | –
11 | CC(=O)N1CCC(=NNc2nc3ccccc3[nH]2)CC1 | inconclusive: 20.6 µM [activator, single point] | –
12 | COC(=O)c1ccc(C(=O)OC)c(NC(=S)N2CCC(C)CC2)c1 | inconclusive: 0.0065 µM [activator, full curve, poor fit] | –
13 | O=C1N/C(=N\N=C\c2ccccn2)SC1Cc1cccc(SC(F)F)c1 (centres undefined) | inconclusive: 7.31 µM [activator, partial curve] | –
14 | COc1ccc(CC2(CO)CCN(Cc3ccc(OC(F)(F)F)cc3)CC2)cc1 | inconclusive: 25.9 µM [activator, single point] | –
15 | CCOC(=O)COc1ccccc1/C=N\NC(=O)c1cc2c(ccc3ccccc32)o1 | inconclusive: 29.1 µM [activator, single point] | –
16 | Oc1c(C(Nc2ccccn2)c2ccccn2)ccc2cccnc12 (centres undefined) | inconclusive: 2.91 µM [activator, partial curve, poor fit] | –
17 | CCCCCCCCSc1nnc2[nH]c(=O)cc(N)n12 | inconclusive: 0.13 µM [activator, full curve, poor fit] | –
18 | CCOc1ccc(C(=O)Nc2cc(-c3nc4ccccc4[nH]3)ccc2Cl)cc1[N+](=O)[O-] | inconclusive: 29.1 µM [activator, single point] | –
19 | CCOc1cc(CN2CCCCCC2)ccc1OC | inconclusive: 16.4 µM [activator, partial curve, poor fit] | –
20 | COc1ccc(-c2csc(Nc3ccccc3)n2)cc1 | – | inactive: 10.4%
21 | O=C(Nc1ccc2cn[nH]c2c1)c1c(Cl)cccc1Cl | – | inactive: -6.01%
22 | O=c1ccc(C(F)(F)F)cn1Cc1cc(=O)n2ccsc2n1 | – | inactive: -3.95%
23 | COc1ccc(OCc2nnc(NC(=O)Nc3ccccc3F)s2)cc1 | inconclusive: 20.6 µM [activator, single point] | –

Row | Compound | Potency | re-replication activation
24 | Cc1c(C(=O)NC2CCCCC2)sc2ncnc(N3CCN(c4ccccc4)CC3)c12 | – | inactive: -2.37%
25 | Cc1noc(C)c1CSCC(=O)N(CC(C)C)c1c(N)n(Cc2ccccc2)c(=O)[nH]c1=O | – | inactive: 24.5%
26 | CC1=CC(C)(C)N2C(=O)C3(SCC(=O)N3c3ccc(F)cc3)c3cc(C)cc1c32 (centres undefined) | – | inactive: 13%
27 | O=C(Cn1nnc(-c2ccccc2NC(=O)c2ccccc2F)n1)NC1CCCC1 | – | inactive: -14%
28 | Cc1ccc(-n2cc(CNCC3CC(=O)N(C4CC4)C3)c(-c3cccc(C)c3)n2)cc1 (centres undefined) | inconclusive: 29.1 µM [activator, single point] | –
29 | O=C(Nc1ccc(Cl)c(Cl)c1)O/N=C/c1ccncc1 | – | inactive: -8.72%
30 | CCC(=O)Nc1cccc(SC)c1 | – | inactive: -5.23%
31 | CC(=O)C[C@@H](O)CC(=O)[C@@H]1OC(=O)CCCCCCc2ccccc21 | inconclusive: 1.84 µM [activator, partial curve, poor fit] | –
32 | COc1cc2c(cc1NC(=O)COC(=O)c1ccc(C(C)(C)C)cc1)oc1ccccc12 | inconclusive: 0.92 µM [activator, partial curve, poor fit] | –
33 | CCOc1ccc(C(=O)N[C@H](C(=O)Nc2cccc(S(=O)(=O)N3CCOCC3)c2)C(C)C)cc1 | inconclusive: 29.1 µM [activator, single point] | –
34 | CC(C)NC(=O)COC(=O)c1ccccc1C(=O)c1ccccc1 | inconclusive: 4.61 µM [activator, single point] | –
35 | CN1CCCN(S(=O)(=O)c2cccc(C(F)(F)F)c2)c2nc3ccccc3nc21 | inconclusive: 11.6 µM [activator, partial curve] | –
36 | CC(C)(C)n1nc2c(c1NC(=O)Cc1ccc([N+](=O)[O-])cc1)CS(=O)(=O)C2 | – | inactive: -2.23%
37 | COC(=O)c1ccccc1NC(=S)N(Cc1ccc2c(c1)OCO2)Cc1cc2cccc(C)c2[nH]c1=O | inconclusive: 20.6 µM [activator, partial curve, poor fit] | –
38 | O=C(CN(Cc1ccccc1Cl)C(=O)CNS(=O)(=O)c1ccc(F)cc1)NCC1CCCO1 (centres undefined) | – | inactive: 4.74%
39 | CC(=O)Nc1ccc2nc(NC(=O)c3ccc([N+](=O)[O-])o3)sc2c1 | active: 3.26 µM | –
40 | COC(=O)[C@@]1(Cc2ccc(OC)cc2)[C@@H]2C(=CC(=O)[C@H]2CC(=O)C(=O)N2CCCC2)CN1C(=O)c1ccccc1 | inconclusive: 29.1 µM [activator, single point] | –
41 | O=C(CCCc1ccccc1)Nc1ccnn1C1CCN(Cc2ccccc2)CC1 | inconclusive: 20.6 µM [activator, single point] | –
42 | O=C(NC1CCCCC1)c1ccc(S(=O)(=O)NCc2ccco2)cc1 | – | inactive: -10.1%
43 | CCN(CC)CCN(C(=O)CCOc1ccccc1)c1nc2c(F)cc(F)cc2s1 | inconclusive: 18.4 µM [activator, single point] | –
44 | O=C(Nc1ccc(C(F)(F)F)cc1)C1CCCCN1S(=O)(=O)c1ccccc1 (centres undefined) | – | inactive: 6.49%
45 | CC(OC(=O)Cn1cnc2c1c(=O)n(C)c(=O)n2C)C(=O)N(C)c1ccccc1 (centres undefined) | inconclusive: 29.1 µM [activator, single point] | –
46 | C/C(=N\NC(=O)c1ccc2c(c1)OCO2)c1ccc2c(c1)OCO2 | – | inactive: -12.7% [at 1.84 µM]

Row | Compound | Potency | re-replication activation
47 | c1ccc(-c2cn3c4c(sc3n2)CCCC4)cc1 | inconclusive: 29.1 µM [activator, single point] | –
48 | O=C(COC(=O)c1ccc(Cl)c([N+](=O)[O-])c1)NC1CCCC1 | – | inactive: -1.53%
49 | CCCCNc1c(-c2ccc(Sc3ccc(OC)cc3)cc2)nc2cc(C)ccn12 | inconclusive: 29.1 µM [activator, single point] | –
50 | CCOC(=O)CS(=O)(=O)c1nc(-c2ccccc2)cc(C(F)(F)F)n1 | active: 2.59 µM | –
51 | CN(Cc1ccco1)S(=O)(=O)c1nnc(NC(=O)c2ccccc2)s1 | inconclusive: 29.1 µM [activator, single point] | –
52 | CCn1ccnc1CN(C)Cc1cn(-c2cccc(C)c2)nc1-c1cccc(F)c1 | inconclusive: 29.1 µM [activator, single point] | –
53 | COc1ccccc1NC(=O)Cn1cnc2c(oc3nc4c(cc32)CCCC4)c1=O | – | inactive: -6.4%
54 | Cc1ccc(NS(=O)(=O)c2cccc(C(=O)NCCCN3CCCC3=O)c2)cc1 | – | inactive: -6.36%
55 | COc1ccc(S(=O)(=O)Nc2cc3c(cc2C(C)=O)OCO3)cc1 | inconclusive: 23.1 µM [activator, partial curve, poor fit] | –
56 | CCc1ccccc1NC(=O)CSc1nc2ccccc2nc1N1CCOCC1 | – | inactive: 17.7%
57 | COc1ccccc1N1CCN(Cc2ccc(O)c3ncccc23)CC1 | inconclusive: 0.651 µM [activator, full curve] | –
58 | Cn1cnnc1SCC(=O)Nc1sc2c(c1C(N)=O)CCC2 | inconclusive: 6.51 µM [activator, single point] | –
59 | C=CCOc1ccccc1CN1CCC(CO)(CCOc2ccccc2)CC1 | inconclusive: 32.6 µM [activator, partial curve, poor fit] | –
60 | O=C1CNC(=O)N1Cc1ccc(Br)cc1 | – | inactive: -8.36%
61 | COc1ccc(NC(=O)NNC(=O)C(O)(c2ccccc2)c2ccccc2)cc1 | inconclusive: 4.11 µM [activator, single point] | –
62 | CC1(C)CC(=O)C(CS(=O)(=O)c2ccccc2)=C(Cl)C1 | inconclusive: 20.6 µM [activator, partial curve, poor fit] | –
63 | CC(C)c1nn2c(=O)cc(CSc3ccccc3NC(=O)c3ccccc3F)nc2s1 | – | inactive: -0.757%
64 | COc1cccc(/C=N/NC(=O)c2c(-c3ccccc3)noc2C)c1O | inconclusive: 2.91 µM [activator, partial curve, poor fit] | –
65 | O=C(/C=C/c1ccco1)NC(=S)Nc1cc(-c2nc3ccccc3s2)ccc1Cl | inconclusive: 18.4 µM [activator, single point] | –
66 | Cc1ccc2nc(N=C(N)N)nc(C)c2c1 | inconclusive: 14.6 µM [activator, single point] | –
67 | COC(=O)c1nccc2c1[nH]c1ccccc12 | – | inactive: -0.95%
68 | COCCn1c(-c2ccco2)nc2nc3ccccc3nc21 | inconclusive: 29.1 µM [activator, single point] | –
69 | CCC(C)(C)n1nnnc1C(c1cc(OC)ccc1OC)N1CCN(Cc2ccccc2)CC1 (centres undefined) | – | inactive: -2.43%

Of the compounds above, two have bromine.
Row | Compound | Potency | re-replication activation
1 | CC(C)CN(CC(C)C)CC(O)COc1ccccc1Br (centres undefined) | inconclusive: 29.1 µM [activator, partial curve, poor fit] | –
60 | O=C1CNC(=O)N1Cc1ccc(Br)cc1 | – | inactive: -8.36%
